{"source": "the supplement of paper PMC8728848", "binders": {"B1": {"name": "LERP (Drosophila melanogaster), B7Z0Q8 (protein)", "chain": "MRCSLQKDCAAPTQENFRQMRFPIVISLLLLLFCSGESVAADAANQLKFSTTECKLKEPIYGSTFDFSGLHSDLAHVVKSMNIGGDQFEFNICGNLSRTCNGESNVAACLKRQGKEYILGRQHELFYNNGNMFLKYKSGAKCDNGTADKPNYQLHVMFSCDYTLDAQPMHVTPYANEVCSFYISYRTPLACLSIPEGLQSNSCRVGDTKSNGTFDLMPLSDSNYHTSNRQGAFFVINVCKPVLYGENSMCPAGSSVCLFDSKATNPKERFINFGNVQTHPVVEKGQLLLRHESPTPCAKNSSANYTSVIYFSCDKFIRNAHPEFAGLGADSCTYQFNFATPLACNDLKPCTAFTSTNELLDLSSLSSKPARTLLKDGKNYTIAVCAHAGAPCQENGGACYEQNSTTISLGNSNSQLRFNQTGSLYLLYEDGAECSTATGMRRWSTKIEFVCANNATKDNGASTAGGSDSLKIIEDSNCQLLIQYQTPLACREPIRCKATTYVDHTNDGLGSSGDELIDLTPLISATDNYEARVELPASMEHLVPKTTKFFLNVCRPLVPKYQLGCAGGSAACMAKVTAAGAPEEERSMGFPLVSLTQRNRTFAELAYLKGDPCPTDNTSELSTHILFNCNMRAGRGQPVLRSVEDCAYRFEWETNVFCPPHECTFSADTCDLVHDELGRRFNFKSAPFTKDGKIEIDYNATKMSVNICGAHRKAMTDYSQALVNIFFTHESPNCGREGTMNVQIRLICSDQTESSSTISSDQQCNLLYVQRTPSICEFLSLGATQQNFESNGSTSSSTSSSSTSTTTSTTTQASPAGKPTKAATSTTTTTVGPDPAATPIGPTASVGTILGAILSVTFCVTCLGLLAFSPARRQRIRRLFRRSNSAVRYSRVQSNEEANLLLEPNGEFTESDDDMLL"}}, "test_in_all_cases": "glycan array binding signal (z-score within array); higher = stronger binding", "details_in_all_cases": "glycan notation: IUPAC condensed, linker removed", "key": {"[1]": {"molecular_target": "Fuc(a1-2)Gal(b1-4)GlcNAc6S", "outline": "(§1)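 Glycan array data were curated from 3228 arrays in the Consortium for Functional Glycomics database and kept only where the protein sequence was available. Glycan names were converted to IUPAC-condensed notation, and columns mapping to the same glycan were averaged. The binding signal is a within-array Z-score, averaged across arrays of the same protein sequence at different concentrations or buffers and across linkers. Negative Z-scores can be read as non-binding.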"}, "[2]": {"molecular_target": "Fuc(a1-2)Gal(b1-4)[Fuc(a1-3)]GlcNAc", "outline": "as §1"}, "[3]": {"molecular_target": "Fuc(a1-2)Gal(b1-4)[Fuc(a1-3)]GlcNAc(b1-2)Man(a1-3)[Fuc(a1-2)Gal(b1-4)[Fuc(a1-3)]GlcNAc(b1-2)Man(a1-6)]Man(b1-4)GlcNAc(b1-4)GlcNAc", "outline": "as §1"}, "[4]": {"molecular_target": "Fuc(a1-2)Gal(b1-4)[Fuc(a1-3)]GlcNAc(b1-3)Gal(b1-4)[Fuc(a1-3)]GlcNAc", "outline": "as §1"}, "[5]": {"molecular_target": "Fuc(a1-2)Gal(b1-4)[Fuc(a1-3)]GlcNAc(b1-3)Gal(b1-4)[Fuc(a1-3)]GlcNAc(b1-3)Gal(b1-4)[Fuc(a1-3)]GlcNAc", "outline": "as §1"}, "Fuc(a1-2)Gal6S(b1-4)Glc": {"molecular_target": "Fuc(a1-2)Gal6S(b1-4)Glc", "outline": "as §1"}, "[6]": {"molecular_target": "Fuc(a1-2)Gal6S(b1-4)Glc6S", "outline": "as §1"}, "[7]": {"molecular_target": "Fuc(a1-2)Gal6S(b1-4)GlcNAc", "outline": "as §1"}, "Fuc(a1-2)[Gal(a1-3)]Gal": {"molecular_target": "Fuc(a1-2)[Gal(a1-3)]Gal", "outline": "as §1"}, "[8]": {"molecular_target": "Fuc(a1-2)[Gal(a1-3)]Gal(b1-3)GlcNAc", "outline": "as §1"}, "[9]": {"molecular_target": "Fuc(a1-2)[Gal(a1-3)]Gal(b1-3)GlcNAc(b1-2)Man(a1-3)[Fuc(a1-2)[Gal(a1-3)]Gal(b1-3)GlcNAc(b1-2)Man(a1-6)]Man(b1-4)GlcNAc(b1-4)GlcNAc", "outline": "as §1"}, "[10]": {"molecular_target": "Fuc(a1-2)[Gal(a1-3)]Gal(b1-4)Glc", "outline": "as §1"}, "[11]": {"molecular_target": "Fuc(a1-2)[Gal(a1-3)]Gal(b1-4)GlcNAc", "outline": "as §1"}, "[12]": {"molecular_target": "Fuc(a1-2)[Gal(a1-3)]Gal(b1-4)GlcNAc(b1-2)Man(a1-3)[Fuc(a1-2)[Gal(a1-3)]Gal(b1-4)GlcNAc(b1-2)Man(a1-6)]Man(b1-4)GlcNAc(b1-4)GlcNAc", "outline": "as §1"}, "[13]": {"molecular_target": "Fuc(a1-2)[Gal(a1-3)]Gal(b1-4)[Fuc(a1-3)]GlcNAc", "outline": "as §1"}, "[14]": {"molecular_target": "Fuc(a1-2)[Gal(a1-4)]Gal(b1-4)GlcNAc", "outline": "as §1"}, "[15]": {"molecular_target": "Fuc(a1-2)[GalNAc(a1-3)]Gal", "outline": "as §1"}, "[16]": {"molecular_target": "Fuc(a1-2)[GalNAc(a1-3)]Gal(b1-3)GalNAc(a1-3)[Fuc(a1-2)]Gal(b1-4)GlcNAc", "outline": "as §1"}, "[17]": {"molecular_target": "Fuc(a1-2)[GalNAc(a1-3)]Gal(b1-3)GlcNAc", "outline": "as §1"}, "[18]": {"molecular_target": "Fuc(a1-2)[GalNAc(a1-3)]Gal(b1-3)GlcNAc(b1-2)Man(a1-3)[Fuc(a1-2)[GalNAc(a1-3)]Gal(b1-3)GlcNAc(b1-2)Man(a1-6)]Man(b1-4)GlcNAc(b1-4)GlcNAc", "outline": "as §1"}, "[19]": {"molecular_target": "Fuc(a1-2)[GalNAc(a1-3)]Gal(b1-4)Glc", "outline": "as §1"}, "[20]": {"molecular_target": "Fuc(a1-2)[GalNAc(a1-3)]Gal(b1-4)GlcNAc", "outline": "as §1"}, "[21]": {"molecular_target": "Fuc(a1-2)[GalNAc(a1-3)]Gal(b1-4)GlcNAc(b1-2)Man(a1-3)[Fuc(a1-2)[GalNAc(a1-3)]Gal(b1-4)GlcNAc(b1-2)Man(a1-6)]Man(b1-4)GlcNAc(b1-4)GlcNAc", "outline": "as §1"}}, "note": "The list shows a part of the results.", "data": [{"binder": "B1", "values": [{"measurement": "glycan array binding signal (z-score)", "setting": "[1]", "result": -1.14}, {"measurement": "glycan array binding signal (z-score)", "setting": "[2]", "result": -0.058}, {"measurement": "glycan array binding signal (z-score)", "setting": "[3]", "result": -1.22}, {"measurement": "glycan array binding signal (z-score)", "setting": "[4]", "result": 0.045}, {"measurement": "glycan array binding signal (z-score)", "setting": "[5]", "result": -0.388}, {"measurement": "glycan array binding signal (z-score)", "setting": "Fuc(a1-2)Gal6S(b1-4)Glc", "result": 1.55}, {"measurement": "glycan array binding signal (z-score)", "setting": "[6]", "result": -1.07}, {"measurement": "glycan array binding signal (z-score)", "setting": "[7]", "result": -0.168}, {"measurement": "glycan array binding signal (z-score)", "setting": "Fuc(a1-2)[Gal(a1-3)]Gal", "result": 0.417}, {"measurement": "glycan array binding signal (z-score)", "setting": "[8]", "result": 1.17}, {"measurement": "glycan array binding signal (z-score)", "setting": "[9]", "result": -0.398}, {"measurement": "glycan array binding signal (z-score)", "setting": "[10]", "result": -1}, {"measurement": "glycan array binding signal (z-score)", "setting": "[11]", "result": 1.07}, {"measurement": "glycan array binding signal (z-score)", "setting": "[12]", "result": 0.988}, {"measurement": "glycan array binding signal (z-score)", "setting": "[13]", "result": 0.981}, {"measurement": "glycan array binding signal (z-score)", "setting": "[14]", "result": 0.206}, {"measurement": "glycan array binding signal (z-score)", "setting": "[15]", "result": 0.38}, {"measurement": "glycan array binding signal (z-score)", "setting": "[16]", "result": -1}, {"measurement": "glycan array binding signal (z-score)", "setting": "[17]", "result": -0.249}, {"measurement": "glycan array binding signal (z-score)", "setting": "[18]", "result": -0.758}, {"measurement": "glycan array binding signal (z-score)", "setting": "[19]", "result": -0.054}, {"measurement": "glycan array binding signal (z-score)", "setting": "[20]", "result": 0.43}, {"measurement": "glycan array binding signal (z-score)", "setting": "[21]", "result": 1.91}]}]}
